Taken from: PubChem BioAssay AID1259405 (NCATS, 2018)
Shown is one part, drawn at random, of about 50,000 reagents tested. Of all reagents, about 4,000 (8%) are marked active. 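Mouse siRNA library applied to hamster cells; one well for each siRNA.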 Reagents against one gene are numbered here. No sequences are given here.

- Aim: 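Knock-downs that lift recombinant protein yield in hamster ovary cells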 (primary screen)
- System: Chinese hamster CHO-K1 ovary cells with stable secreted eGFP expression
- Knock-down reagent: single siRNA against mouse genes, 0.8 pmol siRNA per well (2 µl of 400 nM stock)
- Timing: 3 days
- Detection: 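Percent of the per-plate non-targeting control median for intracellular GFP per well by laser scanning cytometry and for cell viability by ATP luminescence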
- Direction: GFP, % of control: higher = more GFP per well, higher productivity; viability (ATP), % of control: higher = more viable cells (more ATP)
- Active means: 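a knock-down is called active if GFP reaches 120% or more of non-targeting control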

The first 2 entries, ahead of the listing:
no.	target gene	siRNA no.	GFP, % of control	viability (ATP), % of control	call
1	Or10ak9 (GeneID 258159)	1	36.1	28	inactive
2	Or10ak9 (GeneID 258159)	2	76.5	78.2	inactive

Results, from the start:
no.	target gene	siRNA no.	GFP, % of control	viability (ATP), % of control	call
1	Or10ak9 (GeneID 258159)	1	36.1	28	inactive
2	Or10ak9 (GeneID 258159)	2	76.5	78.2	inactive
3	Or10ak9 (GeneID 258159)	3	59.8	54	inactive
4	Or4c108 (GeneID 258900)	1	72.5	62.3	inactive
5	Or4c108 (GeneID 258900)	2	35	62.8	inactive
6	Or4c108 (GeneID 258900)	3	66.5	80.2	inactive
7	Kcne4 (GeneID 57814)	1	92.2	67.3	inactive
8	Kcne4 (GeneID 57814)	2	124	96.1	active
9	Ubash3a (GeneID 328795)	1	54.5	64.5	inactive
10	Ubash3a (GeneID 328795)	2	78.4	84.3	inactive
11	Ubash3a (GeneID 328795)	3	53.6	94.8	inactive
12	Hspa4l (GeneID 18415)	1	102	143	inactive
13	Hspa4l (GeneID 18415)	2	64.8	79.5	inactive
14	Plekhg4 (GeneID 102075)	1	126	82.1	active
15	Plekhg4 (GeneID 102075)	2	72.9	95	inactive
16	Plekhg4 (GeneID 102075)	3	55.2	54.3	inactive
17	Tas2r108 (GeneID 57253)	1	59	70.5	inactive
18	Tas2r108 (GeneID 57253)	2	76.5	101	inactive
19	Tas2r108 (GeneID 57253)	3	98.3	116	inactive
20	Tktl1 (GeneID 83553)	1	114	106	inactive
21	Tktl1 (GeneID 83553)	2	77.8	132	inactive
22	Tktl1 (GeneID 83553)	3	87	117	inactive
23	Parva (GeneID 57342)	1	71.4	85.6	inactive
24	Parva (GeneID 57342)	2	38.8	26.8	inactive
25	Dzip1 (GeneID 66573)	1	102	72.4	inactive
26	Dzip1 (GeneID 66573)	2	76.5	76.5	inactive
27	Dzip1 (GeneID 66573)	3	64.8	65.5	inactive
28	Dhfr (GeneID 13361)	1	63.6	112	inactive
29	Dhfr (GeneID 13361)	2	96.9	90.6	inactive
30	Ccdc39 (GeneID 51938)	1	97	92	inactive
31	Ccdc39 (GeneID 51938)	2	85.5	82.7	inactive
32	Ccdc39 (GeneID 51938)	3	72.7	59.7	inactive
33	Ankra2 (GeneID 68558)	1	88	82.5	inactive
34	Ankra2 (GeneID 68558)	2	37.4	53	inactive
35	Ankra2 (GeneID 68558)	3	82	97.6	inactive
36	Rbm47 (GeneID 245945)	1	94.8	76.5	inactive
37	Rbm47 (GeneID 245945)	2	91.9	83.4	inactive
38	Rbm47 (GeneID 245945)	3	89.9	114	inactive
39	Colgalt1 (GeneID 234407)	1	34.3	66.8	inactive
40	Colgalt1 (GeneID 234407)	2	274	86.9	active
41	Colgalt1 (GeneID 234407)	3	66.6	86.9	inactive
42	Olr1 (GeneID 108078)	1	133	133	active
43	Olr1 (GeneID 108078)	2	97.6	84	inactive
44	Olr1 (GeneID 108078)	3	88.8	68.4	inactive
45	Klra5 (GeneID 16636)	1	67.4	75.6	inactive
46	Klra5 (GeneID 16636)	2	86.3	69.8	inactive
47	Klra5 (GeneID 16636)	3	99.4	95.1	inactive
48	Gmppb (GeneID 331026)	1	103	70.1	inactive
49	Gmppb (GeneID 331026)	2	83.1	116	inactive
50	Gmppb (GeneID 331026)	3	62.5	84.1	inactive
51	Foxs1 (GeneID 14239)	1	79.2	90.7	inactive
52	Foxs1 (GeneID 14239)	2	115	84.8	inactive
53	Slfn2 (GeneID 20556)	1	60.3	80	inactive
54	Slfn2 (GeneID 20556)	2	63.2	78.4	inactive
55	Slfn2 (GeneID 20556)	3	83.8	49.3	inactive
56	Grik5 (GeneID 14809)	1	79.2	81	inactive
57	Grik5 (GeneID 14809)	2	56.4	38.6	inactive
58	Grik5 (GeneID 14809)	3	59.8	66.6	inactive
59	Plp2 (GeneID 18824)	1	69.4	37.7	inactive
60	Plp2 (GeneID 18824)	2	143	53.5	active
61	Plp2 (GeneID 18824)	3	77.4	65.3	inactive
62	Ncoa4 (GeneID 27057)	1	79.2	62.3	inactive
63	Ncoa4 (GeneID 27057)	2	85.7	83.5	inactive
64	Ncoa4 (GeneID 27057)	3	93.9	68.1	inactive
65	Camk2g (GeneID 12325)	1	118	119	inactive
66	Camk2g (GeneID 12325)	2	81	64.8	inactive
67	Camk2g (GeneID 12325)	3	79	68.8	inactive
68	Ece1 (GeneID 230857)	1	66.9	76.5	inactive
69	Ece1 (GeneID 230857)	2	122	66.7	active
70	Ece1 (GeneID 230857)	3	117	99.7	inactive
71	Siglech (GeneID 233274)	1	86.4	80.5	inactive
72	Siglech (GeneID 233274)	2	45.6	65.9	inactive
73	Siglech (GeneID 233274)	3	90.8	67.6	inactive
74	F830104G03Rik (GeneID 619322)	1	86.1	111	inactive
75	F830104G03Rik (GeneID 619322)	2	92.3	76.4	inactive
76	F830104G03Rik (GeneID 619322)	3	70.1	55	inactive
77	Dyrk3 (GeneID 226419)	1	115	164	inactive
78	Dyrk3 (GeneID 226419)	2	94.7	62.4	inactive
79	Dyrk3 (GeneID 226419)	3	87.7	78.9	inactive
80	Mtbp (GeneID 105837)	1	53.2	69.1	inactive
81	Mtbp (GeneID 105837)	2	43.9	55	inactive
82	Mtbp (GeneID 105837)	3	80.2	58.3	inactive
83	Atp6v1b2 (GeneID 11966)	1	86.5	69.7	inactive
84	Atp6v1b2 (GeneID 11966)	2	45.3	79.5	inactive
85	Atp6v1b2 (GeneID 11966)	3	84.6	69.1	inactive
86	Trpm1 (GeneID 17364)	1	108	66.9	inactive
87	Trpm1 (GeneID 17364)	2	97	82.6	inactive
88	Trpm1 (GeneID 17364)	3	106	99.1	inactive
89	Piga (GeneID 18700)	1	103	105	inactive
90	Piga (GeneID 18700)	2	91.7	110	inactive
91	Piga (GeneID 18700)	3	58.6	81.3	inactive
92	Srrm3 (GeneID 58212)	1	76.4	56	inactive
93	Srrm3 (GeneID 58212)	2	85.6	88.5	inactive
94	Srrm3 (GeneID 58212)	3	77.6	73.8	inactive
95	Or11h23 (GeneID 258113)	1	117	61.4	inactive
96	Or11h23 (GeneID 258113)	2	55.9	53.6	inactive
97	Or11h23 (GeneID 258113)	3	34.4	40.2	inactive
98	Or5h26 (GeneID 258775)	1	71.3	95.5	inactive
99	Or5h26 (GeneID 258775)	2	69.2	76.5	inactive
100	Or5h26 (GeneID 258775)	3	45.6	77.1	inactive
101	Atp13a4 (GeneID 224079)	1	50	49.5	inactive
102	Atp13a4 (GeneID 224079)	2	74.3	100	inactive
103	Atp13a4 (GeneID 224079)	3	35.8	59.6	inactive
104	Huwe1 (GeneID 59026)	1	57.3	89.9	inactive
105	Huwe1 (GeneID 59026)	2	72.1	56.5	inactive
106	Huwe1 (GeneID 59026)	3	111	45.8	inactive
107	Tbck (GeneID 271981)	1	131	68.8	active
108	Tbck (GeneID 271981)	2	52.5	55.2	inactive
109	Tbck (GeneID 271981)	3	50.3	82.4	inactive
